Measured values taken from PMC3188574.
These are yes or no findings as the source states them, for the method shown. In cells and extracts the contact can be indirect. Some results given as binding are weak or reduced against the parent protein; the word gives no strength. Where a sequence is shown, tags or fusion partners need not be part of it.

Chains of the proteins cited; added tags and fusions are not shown. Residues count along the entry.
UniProt Q08850, residues 1-273: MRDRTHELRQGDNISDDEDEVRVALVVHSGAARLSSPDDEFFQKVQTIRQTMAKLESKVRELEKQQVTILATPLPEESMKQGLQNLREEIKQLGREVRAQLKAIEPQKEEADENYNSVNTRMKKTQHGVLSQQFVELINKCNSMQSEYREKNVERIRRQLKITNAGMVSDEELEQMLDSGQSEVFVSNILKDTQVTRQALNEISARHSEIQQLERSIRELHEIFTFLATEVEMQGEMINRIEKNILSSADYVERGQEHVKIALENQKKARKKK

Target: GST-syntaxin-4 (1-273) (UniProt Q08850)
Assay: pull-down; 10 µg GST or GST-syntaxin on Glutathione-Sepharose 4B beads, with 1 mg HEK293T lysate overexpressing tomosyn-1 or a tomosyn-2 isoform, 1% Triton lysis buffer, 2 h at 4°C, three washes; anti-myc blot; only the target purified

B1: xb-tomosyn-2-myc (protein, UniProt Q5DQR4 1-1185)
chain: MKKFNFRKVLDGLTASSPGSGSSSGSNSGGAGSGSVHPGGTAGLPREEIQESLTSDYFQICKTVRHGFPYQPTALAFDPVQKILAIGTRTGAIRILGRPGVDCYCQHESGAAVLQLQFLINEGALVSASSDDTLHLWNLRQKRPAILHSLKFNRERITYCHLPFQSKWLYVGTERGNTHIVNIESFILSGYVIMWNKAIELSTKTHPGPVVHLSDSPRDEGKLLIGYENGTVVFWDLKSKRAELRVYYDEAIHSIDWHHEGKQFMCSHSDGSLTLWNLKSPSRPFQTTVPHGKSQREGRKSESCKPILKVEYKTCRNSEPFIIFSGGLSYDKACRRPSLTIMHGKAITVLEMDHPIVEFLTLCETPYPNEFQEPYAVAVLLEKDLIVVDLTQTNFPIFENPYPMDIHESPVTCTAYFADCPPDLILVLYSIGVKHKKQGYSNKEWPVSGGAWNLGAQTYPEIIITGHADGTIKFWDASAMTLQMLYKLKTSKVFEKQKAGEGKQTCELVEEDPFAVQMIYWCPESRIFCVSGVSAYVIIYKFSRHEVTTEIVSLEVRLQCDVEDIITPEPETSPPFPDLSSQLPPSRSLSGSTNTVSSEGVTKDSIPCLSVKTRPVRMPPGYQADLVIQLVWVDGEPPQQITSLSISSAYGIVAFGNCTGLVVVDFIQKTVLLSMGTIDLYRSSDLYQRQPRSPRKNRQFIADNFCMRGLSNFYPDLTKRIRTSYQSLTELNDSPVPLELERCKSPTSDHVNGHCTSPTSQSCSSGKRLSSADVSKVNRWGPGRPPFRKAQSAACMEISLPVTTEETRENSYNRSRSSSISSIDKDSKEAITALYFMESFARKNDSTVSPCLFVGTSLGMVVLISLNLPSSDEQRFTEPVVVLPSGTFLSLKGAVLTFSCMDRTGSLMQPPYEVWRDPNNTDENEKTWKRKLVMNYSSSSQEMGDHQYTIICSEKQAKVFSLPSQTCLYVHNITETSFILQADVVVMCNSACLACFCANGHIMIMSLPSLRPMLDVNYLPLTDMRIARTFCFTNEGQALYLVSPTEIQRLTYSQEMCDNIQDMLGDLFTPIETPEAQNRGFLKGLFGGSGQTFDREELFGEASAGKASRSLAQHIPGPGSIEGMKGAAGGVMGELTRARIALDERGQRLGELEEKTAGMMTSAEAFSKHAHELMLKYKDKKWYQF
binding: binds
